{"source": "patent US10227388B2", "about": "“Peptides and combination of peptides for use in immunotherapy against non-small cell lung cancer and other cancers” (immatics biotechnologies GmbH, priority 2015, dated 2019)", "system": "HLA molecules of other tumor types, cell lines and normal tissues", "experiment": "LC-MS detection of HLA-presented peptides on other tumor types, cell lines and normal tissues", "design": "species or system human", "settings": "for peptide found on tumor samples (positive/measured): FIG. 1E-1K; for peptide detected on tumor samples (positive/measured): FIG. 1A-1D", "key": {"[1]": {"settings": "gallbladder and bile duct cancers"}}, "data": [{"substance": "ALLPLSPYL (listed as Homo sapiens) [SEQ ID NO.: 427]", "values": [{"measurement": "peptide found on tumor samples (positive/measured)", "setting": "breast cancers", "value": "9/18"}, {"measurement": "peptide detected on tumor samples (positive/measured)", "setting": "esophageal cancers", "value": "1/17"}, {"measurement": "peptide found on tumor samples (positive/measured)", "setting": "esophageal cancers", "value": "2/18"}, {"measurement": "peptide found on tumor samples (positive/measured)", "setting": "[1]", "value": "7/17"}, {"measurement": "peptide found on tumor samples (positive/measured)", "setting": "head and neck cancers", "value": "1/12"}, {"measurement": "peptide detected on tumor samples (positive/measured)", "setting": "liver cancers", "value": "4/16"}, {"measurement": "peptide found on tumor samples (positive/measured)", "setting": "liver cancers", "value": "7/21"}, {"measurement": "peptide detected on tumor samples (positive/measured)", "setting": "lung cancers", "value": "19/91"}, {"measurement": "peptide found on tumor samples (positive/measured)", "setting": "lung cancers", "value": "22/107"}, {"measurement": "peptide found on tumor samples (positive/measured)", "setting": "pancreas cancers", "value": "4/19"}, {"measurement": "peptide detected on tumor samples (positive/measured)", "setting": "pancreatic cancers", "value": "4/19"}, {"measurement": "peptide detected on tumor samples (positive/measured)", "setting": "prostate cancers", "value": "4/43"}, {"measurement": "peptide found on tumor samples (positive/measured)", "setting": "prostate cancers", "value": "4/87"}, {"measurement": "peptide detected on tumor samples (positive/measured)", "setting": "small cell lung cancers", "value": "1/15"}, {"measurement": "peptide found on tumor samples (positive/measured)", "setting": "urinary bladder cancers", "value": "2/15"}, {"measurement": "peptide found on tumor samples (positive/measured)", "setting": "uterus cancers", "value": "11/16"}]}, {"substance": "GLLRDEALAEV (listed as Homo sapiens) [SEQ ID NO.: 444]", "values": [{"measurement": "peptide found on tumor samples (positive/measured)", "setting": "breast cancers", "value": "2/18"}, {"measurement": "peptide found on tumor samples (positive/measured)", "setting": "colon or rectum cancers", "value": "3/29"}, {"measurement": "peptide found on tumor samples (positive/measured)", "setting": "esophageal cancers", "value": "1/18"}, {"measurement": "peptide found on tumor samples (positive/measured)", "setting": "head and neck cancers", "value": "1/12"}, {"measurement": "peptide found on tumor samples (positive/measured)", "setting": "kidney cancers", "value": "1/23"}, {"measurement": "peptide found on tumor samples (positive/measured)", "setting": "leukocytic leukemia cancers", "value": "2/17"}, {"measurement": "peptide found on tumor samples (positive/measured)", "setting": "lung cancers", "value": "9/107"}, {"measurement": "peptide found on tumor samples (positive/measured)", "setting": "myeloid cells cancer", "value": "1/18"}, {"measurement": "peptide found on tumor samples (positive/measured)", "setting": "skin cancers", "value": "2/18"}, {"measurement": "peptide found on tumor samples (positive/measured)", "setting": "urinary bladder cancers", "value": "2/15"}, {"measurement": "peptide found on tumor samples (positive/measured)", "setting": "uterus cancers", "value": "1/16"}]}, {"substance": "KLAEGLDIQL (listed as Homo sapiens) [SEQ ID NO.: 449]", "values": [{"measurement": "peptide found on tumor samples (positive/measured)", "setting": "colon or rectum cancers", "value": "3/29"}, {"measurement": "peptide found on tumor samples (positive/measured)", "setting": "lung cancers", "value": "6/107"}]}, {"substance": "VLVSDGVHSV (listed as Homo sapiens) [SEQ ID NO.: 6]", "values": [{"measurement": "peptide detected on tumor samples (positive/measured)", "setting": "brain cancers", "value": "10/29"}, {"measurement": "peptide found on tumor samples (positive/measured)", "setting": "brain cancers", "value": "15/34"}, {"measurement": "peptide found on tumor samples (positive/measured)", "setting": "breast cancers", "value": "3/18"}, {"measurement": "peptide detected on tumor samples (positive/measured)", "setting": "esophageal cancers", "value": "3/17"}, {"measurement": "peptide found on tumor samples (positive/measured)", "setting": "esophageal cancers", "value": "3/18"}, {"measurement": "peptide found on tumor samples (positive/measured)", "setting": "head and neck cancers", "value": "4/12"}, {"measurement": "peptide found on tumor samples (positive/measured)", "setting": "kidney cancers", "value": "1/23"}, {"measurement": "peptide detected on tumor samples (positive/measured)", "setting": "lung cancers", "value": "3/91"}, {"measurement": "peptide found on tumor samples (positive/measured)", "setting": "lung cancers", "value": "6/107"}, {"measurement": "peptide detected on tumor samples (positive/measured)", "setting": "renal cancers", "value": "1/22"}, {"measurement": "peptide found on tumor samples (positive/measured)", "setting": "skin cancers", "value": "5/18"}, {"measurement": "peptide detected on tumor samples (positive/measured)", "setting": "small cell lung cancers", "value": "1/15"}, {"measurement": "peptide found on tumor samples (positive/measured)", "setting": "urinary bladder cancers", "value": "5/15"}, {"measurement": "peptide found on tumor samples (positive/measured)", "setting": "uterus cancers", "value": "3/16"}]}, {"substance": "LLLDITPEI (listed as Homo sapiens) [SEQ ID NO.: 143]", "values": [{"measurement": "peptide found on tumor samples (positive/measured)", "setting": "brain cancers", "value": "2/34"}, {"measurement": "peptide found on tumor samples (positive/measured)", "setting": "breast cancers", "value": "4/18"}, {"measurement": "peptide found on tumor samples (positive/measured)", "setting": "esophageal cancers", "value": "2/18"}, {"measurement": "peptide found on tumor samples (positive/measured)", "setting": "head and neck cancers", "value": "1/12"}, {"measurement": "peptide found on tumor samples (positive/measured)", "setting": "liver cancers", "value": "2/21"}, {"measurement": "peptide found on tumor samples (positive/measured)", "setting": "lung cancers", "value": "6/107"}, {"measurement": "peptide found on tumor samples (positive/measured)", "setting": "skin cancers", "value": "2/18"}, {"measurement": "peptide found on tumor samples (positive/measured)", "setting": "stomach cancers", "value": "1/45"}, {"measurement": "peptide found on tumor samples (positive/measured)", "setting": "urinary bladder cancers", "value": "2/15"}]}, {"substance": "RLWEEGEELEL (listed as Homo sapiens) [SEQ ID NO.: 150]", "values": [{"measurement": "peptide found on tumor samples (positive/measured)", "setting": "breast cancers", "value": "1/18"}, {"measurement": "peptide found on tumor samples (positive/measured)", "setting": "colon cancers", "value": "1/29"}, {"measurement": "peptide found on tumor samples (positive/measured)", "setting": "esophageal cancers", "value": "2/18"}, {"measurement": "peptide found on tumor samples (positive/measured)", "setting": "[1]", "value": "4/17"}, {"measurement": "peptide found on tumor samples (positive/measured)", "setting": "head and neck cancers", "value": "1/12"}, {"measurement": "peptide found on tumor samples (positive/measured)", "setting": "lung cancers", "value": "10/107"}, {"measurement": "peptide found on tumor samples (positive/measured)", "setting": "skin cancers", "value": "2/18"}, {"measurement": "peptide found on tumor samples (positive/measured)", "setting": "uterus cancers", "value": "1/16"}]}, {"substance": "SLNDEVPEV (listed as Homo sapiens) [SEQ ID NO.: 157]", "values": [{"measurement": "peptide found on tumor samples (positive/measured)", "setting": "bile duct cancers", "value": "1/17"}, {"measurement": "peptide found on tumor samples (positive/measured)", "setting": "brain cancers", "value": "5/34"}, {"measurement": "peptide found on tumor samples (positive/measured)", "setting": "breast cancers", "value": "1/18"}, {"measurement": "peptide found on tumor samples (positive/measured)", "setting": "colon cancers", "value": "1/29"}, {"measurement": "peptide found on tumor samples (positive/measured)", "setting": "esophageal cancers", "value": "2/18"}, {"measurement": "peptide found on tumor samples (positive/measured)", "setting": "head and neck cancers", "value": "1/12"}, {"measurement": "peptide found on tumor samples (positive/measured)", "setting": "kidney cancers", "value": "2/23"}, {"measurement": "peptide found on tumor samples (positive/measured)", "setting": "liver cancers", "value": "1/21"}, {"measurement": "peptide found on tumor samples (positive/measured)", "setting": "lung cancers", "value": "4/107"}, {"measurement": "peptide found on tumor samples (positive/measured)", "setting": "skin cancers", "value": "1/18"}, {"measurement": "peptide found on tumor samples (positive/measured)", "setting": "urinary bladder cancers", "value": "1/15"}, {"measurement": "peptide found on tumor samples (positive/measured)", "setting": "uterus cancers", "value": "1/16"}]}, {"substance": "214 (FLLDLDPLLL; listed as Homo sapiens) [compound 214]", "values": [{"measurement": "Additional organs/cancerous diseases", "setting": "additional tumor types on which the peptide was found: over-presentation on more than 5% of the measured tumor samples, or presentation on more than 5% with ratio of geometric means tumor vs normal tissues larger than 3", "value": "Brain Cancer, CRC, CLL, Urinary Bladder Cancer"}]}, {"substance": "VMNDRLYAI (listed as Homo sapiens) [SEQ ID NO.: 587]", "values": [{"measurement": "number of samples with detectable presentation of the peptide", "setting": "normal tissue: spleen", "value": 3}, {"measurement": "number of samples with detectable presentation of the peptide", "setting": "normal tissues, total", "value": 5}]}, {"substance": "SLMEPPAVLLL (listed as Homo sapiens) [SEQ ID NO.: 1]", "values": [{"measurement": "peptide detected on tumor samples (positive/measured)", "setting": "brain cancers", "value": "1/29"}, {"measurement": "peptide detected on tumor samples (positive/measured)", "setting": "colorectal cancers", "value": "1/28"}, {"measurement": "peptide detected on tumor samples (positive/measured)", "setting": "esophageal cancers", "value": "2/17"}, {"measurement": "peptide detected on tumor samples (positive/measured)", "setting": "lung cancers", "value": "7/91"}, {"measurement": "peptide detected on tumor samples (positive/measured)", "setting": "renal cancers", "value": "1/22"}, {"measurement": "peptide detected on tumor samples (positive/measured)", "setting": "small cell lung cancers", "value": "2/15"}]}, {"substance": "KIFEMLEGV (listed as Homo sapiens) [SEQ ID NO.: 11]", "values": [{"measurement": "number of samples with detectable presentation of the peptide", "setting": "normal tissues, total", "value": 3}]}]}
